# Values of other authors, collected in paper PMC8593021, “Biophysical and functional characterization of the human TAS1R2 sweet taste receptor overexpressed in a HEK293S inducible cell line” (Scientific Reports, 2021).
# Settings: on a molar basis; cited from earlier work
row,SMILES,Relative sweetness
1,"C=C(C)C1CC=C(/C=N/O)CC1 (stereo in doubt) [Perillartine, perillartine]",2000
2,"CC1=CC(=O)NS(=O)(=O)O1 [Acesulfame-K, acesulfame-K]",200
3,"O=S(=O)(O)NC1CCCCC1 [Cyclamate-Na, cyclamate-Na]",30–50
4,"COC(=O)[C@H](Cc1ccccc1)NC(=O)[C@H](CC(=O)O)NCCC(C)(C)C [Neotame, neotame]","11,000"
5,"OC[C@H]1O[C@H](O[C@]2(CCl)O[C@H](CCl)[C@@H](O)[C@@H]2O)[C@H](O)[C@@H](O)[C@H]1Cl [Sucralose, sucralose]",600
